One substance from paper PMC10893636, “Synergistic enhancement of the mouse Pramex1 and Pramel1 in repressing retinoic acid (RA) signaling during gametogenesis” (Cell & Bioscience, 2024) can be followed below.

By UniProt entry, the sequences of proteins in these tests, tags left out. Where a name states a change or a piece, a line headed by the entry shows the natural chain unless it says otherwise.
UniProt F7ADI6: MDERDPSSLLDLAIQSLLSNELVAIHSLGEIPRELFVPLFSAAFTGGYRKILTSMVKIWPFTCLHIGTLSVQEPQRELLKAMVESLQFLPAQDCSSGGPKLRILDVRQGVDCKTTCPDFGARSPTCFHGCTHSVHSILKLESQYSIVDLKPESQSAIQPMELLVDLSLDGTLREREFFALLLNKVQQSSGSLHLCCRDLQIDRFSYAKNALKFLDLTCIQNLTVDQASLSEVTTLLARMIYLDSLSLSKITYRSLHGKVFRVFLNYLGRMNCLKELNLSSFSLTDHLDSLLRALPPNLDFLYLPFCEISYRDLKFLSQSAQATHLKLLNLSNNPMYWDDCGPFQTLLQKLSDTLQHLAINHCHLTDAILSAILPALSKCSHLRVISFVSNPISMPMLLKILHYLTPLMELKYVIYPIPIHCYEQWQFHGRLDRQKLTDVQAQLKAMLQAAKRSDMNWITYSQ
UniProt Q9Z2C8: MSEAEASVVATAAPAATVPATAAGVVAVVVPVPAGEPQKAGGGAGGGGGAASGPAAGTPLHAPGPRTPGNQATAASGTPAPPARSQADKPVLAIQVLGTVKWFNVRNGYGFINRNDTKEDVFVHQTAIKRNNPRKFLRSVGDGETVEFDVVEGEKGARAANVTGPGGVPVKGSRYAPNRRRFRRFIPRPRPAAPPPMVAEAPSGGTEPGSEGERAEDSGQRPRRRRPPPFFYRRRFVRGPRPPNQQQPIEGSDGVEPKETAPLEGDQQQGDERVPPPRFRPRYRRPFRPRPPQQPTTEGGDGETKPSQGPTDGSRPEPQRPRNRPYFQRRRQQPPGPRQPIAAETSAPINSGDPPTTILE

This test deals with PRAMEX1 (Prame like, X-linked 1) (mouse (endogenous in testis)) (UniProt F7ADI6). The test is described as follows: co-IP; anti-PRAMEX1 or anti-RARα antibody immobilised on protein A/G magnetic beads (Pierce Crosslink Magnetic IP/co-IP Kit); P7 testis proteins of WT, Pramex1 sKO and Pramel1 sKO mice, overnight at 4 °C; Western blot, band intensity relative to input (set as 1), n = 3. A general note: In western blotting, separated proteins are transferred to a membrane and probed.

These are yes or no findings as the source states them, for the method shown. In cells and extracts the contact can be indirect.

On to “Y-Box Binding Protein 2 (YBX2) (from UniProt Q9Z2C8 1-360)”, for which the binding result is “no binding”.
